# Results: patent US20050004037A1, “Osteogenic growth oligopeptides as stimulants of hematopoiesis” (Yissum Research Development Company of the Hebrew …, priority 2001, published 2005)
# Part of at least one peptide drawing is inferred or uncertain, most often the ends. Ends that are not written are not given here.
# Legend:
# [1] = test system: total femoral bone marrow cells; experiment: Engraftment of bone marrow transplant: femoral marrow cell count after ablative irradiation/BMT; assay type: in vivo, mice; conditions: three highest doses of 0.001-10 nmol/mouse daily s.c. for 12 days; 900 rad and 10^5 syngeneic marrow cells on day 8; counted day 14
# [2] = test system: white blood cells, monocytes, immature cells; experiment: Total and differential blood cell counts after cyclophosphamide (CFA) chemoablation; assay type: in vivo, mice
# Experimental: FIGS. 2A-C—OGP(10-14) stimulates blood cell counts in dose and time dependent manner in mice undergoing chemoablation of hematopoietic tissues Male ICR mice weighing 25 gm each were subjected to chemoablation using cyclophosphamide (CFA), 5 mg/mouse, injected intraperitoneally on days 0 and 1, one injection each day. OGP(10-14) was dissolved in “sterile water for injection” and 0.1 ml of the indicated doses or water only (vehicle) was administered subcutaneously in the nape daily from day −7 to day −1 and from day +2 to day +8. Data are mean±SD obtained in 20 animals per condition. *: significant over CFA+vehicle, p<0.05; **: significant over 1 nmol OGP(10-14) group, p<0.05.
# In this set of experiments bone marrow ablation was induced by an intraperitoneal injection of cyclophophamide (CFA, SIGMA, 5 mg/mouse in 150 (1 sterile PBS) for two consecutive days (designated “day 0” and “day 1”. This protocol has been demonstarted to induce severe, reversible leucopoena with L. D. <30 [Spangrude, G. J. et al, Science, 241:58 (1988)]. The lowest bone marrow cell counts were recorded six days after the first injection.
# To evaluate the effect of OGP(10-14) on WBC differential cell counts and determine the OGP(10-14) “dose of choice” to be used in further experiments, mice were treated daily by subcutaneous injections of 0.1 ml OGP(10-14)-free vehicle or vehicle containing different OGP(10-14) doses as outlined in FIG. 2. One group of reference baseline controls was left untreated and received neither CFA nor sterile water vehicle with or without OGP(10-14) (FIG. 2). Blood was collected by retroorbital bleeding on days −12, −4, +3, +7, +14, +17, +21 and +24 (FIG. 2C) Differential cell counts were carried out using a Coulter Counter (Sysmex Microcell Counter F-800).
# CD34+/Sca-1+ cells = experiment: Flow cytometry of circulating double positive CD34+/Sca-1+ cells after CFA chemoablation; assay type: in vivo, mice
# [3] = test system: CFU-GM, CFU-GEMM and BFU-E; experiment: Ex vivo progenitor cell (colony forming) assays on bone marrow of treated chemoablated mice; assay type: in vivo; conditions: bone marrow of CFA-ablated mice, 10 nmol/day s.c.
# Experimental: Male ICR mice weighing 25 gm each were subjected to chemoablation using cyclophosphamide (CFA), 5 mg/mouse, injected intraperitoneally on days 0 and 1, one injection each day. OGP(10-14) was dissolved in “sterile water for injection” at 100 nmol/ml concentration and 0.1 ml of this solution or water only (vehicle) was administered subcutaneously in the nape daily for the indicated period(s). Bone marrow was harvested on day 9 and analyzed for colony forming units. Data are meam±SD obtained in 10 animals per condition.
# To evaluate different dosing regimens of OGP(10-14), chemoablated mice were subjected to daily treatment with OGP(10-14), as outlined in FIG. 4. The mice were sacrificed on day +15, the femoral bone marrow was flushed and single cell suspensions (prepared as above) were subjected to ex vivo progenitor cell (colony forming) assays. The OGP(10-14) effect on the formation of CFU-GM, CFU-GEMM and BFU-E was compared to that of G-CSF (FIG. 4).
# Bone marrow cells were recovered on day +10 after injection of CFA from all groups. Cells were diluted to 2×10^6/ml in Iscove's Modified Dulbecco Medium(IMFM) with 2% FBS and added to methylcellulose medium according to the manufacturer's recommendations (MethoCult, StemCell Technologies Inc., Vancouver, Canada). 2×10^4 cells were plated in each test. Both M3434 (for murine GM-CFU, and GEMM-CFU) and M3334 for (murine BFU-E assay) were used. M3434 was supplemented with recombinant murine interleukine-3 (rmIL-3, 10 ng/ml), recombinant human interleukine-6 (rhIL-6, 10 ng/ml), recombinant murine stem cell factor (rmSCF, 50 ng/ml) and recombinant human erythropoietin (rhEpo, 3 U/ml). […] the only factor included was Epo. Duplicate tests for each mouse were blindly examined after 14 days of incubation according to the protocol procedures.
# [4] = test system: hematopoietic cells of bone marrow specimens; experiment: Ex vivo culture of bone marrow specimens from IMF and non-IMF patients, hematopoietic cellularity; assay type: cell-based, human
# MAP kinase = conditions: MC3T3 E1 cells, mitogenic doses, time- and dose dependent; cited from earlier work
# [5] = day 7 after CFA, maximal dose 10 nmol
# [6] = OGP(10-14) effect only where treatment began 7 days before chemoablation
substance,measurement,setting,value
"YGFGG [OGP(10-14), Tyr-Gly-Phe-Gly-Gly]",increase in total femoral bone marrow cell counts over the PBS controls,[1],2 fold
same,blood granulocyte cell counts,[2]; CFA-ablated mice,non-significant effect
same,recovery after reversible aplasia versus placebo,[2]; CFA-induced aplasia,recovered faster
same,total WBC counts versus untreated reference group,"[2]; day 7 after CFA, 10 nmol/day",approached closely those noted in the untreated reference group
same,total WBC counts versus CFA + vehicle,"[2]; day 7 after CFA, all doses tested, s.c. daily day -7 to -1 and +2 to +8",higher values at all doses tested
same,monocyte and immature cell counts,"[2]; day 7 after CFA, differential cell counts",dose dependent increase
same,immature cell counts compared to the reference,[2]; [5],significantly higher than the reference
same,monocyte counts compared to the normal reference,[2]; [5],6 fold
same,amount of double positive CD34+/Sca-1+ cells versus vehicle alone,"CD34+/Sca-1+ cells; day +5, chemoablated mice, 10 nmol daily",5 fold
same,number of CD34+/Sca-1+ cells versus vehicle and G-CSF,"CD34+/Sca-1+ cells; day +15, 10 nmol daily",significantly higher number than the vehicle and G-CSF treated mice
same,CFU-GM,[3],absence of an OGP(10-14) effect
same,BFU-E,[3]; [6],significantly stimulates
same,CFU-GEMM,[3]; [6],significantly stimulates
same,semiquantitative score (I to IV) of bone marrow cellularity,"[4]; IMF patients, 10^-8 M, 14 days in culture, treated versus untreated specimens",significantly increased
same,ratio between erythroid and myeloid cells,"[4]; after culturing with 10^-8 M, 14 days",apparently unchanged
same,T/C ratio (mean cell density in treated over untreated specimens),"[4]; all IMF cases, 10^-8 M, 14 days in culture",> 1
same,"semiquantitative score, treated versus untreated specimens","[4]; non IMF patients, 10^-8 M, 14 days in culture",No differences were detected
same,differences in the number of megakaryocytes,"[4]; non-IMF patients, 10^-8 M, 14 days",such differences were not found
same,T/C RATIO,"[4]; patient A (IMF), 10^-8 M, 14 days",2.0
same,T/C RATIO,"[4]; patient B (IMF), 10^-8 M, 14 days",3.3
same,T/C RATIO,"[4]; patient C (IMF), 10^-8 M, 14 days",5.7
same,T/C RATIO,"[4]; patient D (IMF), 10^-8 M, 14 days",8.1
same,T/C RATIO,"[4]; patient E (IMF), 10^-8 M, 14 days",1.8
same,T/C RATIO,"[4]; patient F (non-IMF), 10^-8 M, 14 days",1.2
same,T/C RATIO,"[4]; patient G (non-IMF), 10^-8 M, 14 days",0.9
same,T/C RATIO,"[4]; patient H (non-IMF), 10^-8 M, 14 days",1.1
same,MAP kinase activity,MAP kinase,enhance MAP kinase activity
